Laboratory results as given in PubChem BioAssay AID1117319 (Southern Research Institute, 2015).
Screen size: about 260,000 compounds; about 1,500 (0.58%) were called active. The shares of active, inactive and inconclusive entries below differ from those in the screen.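 The calls were made as follows: active = inhibition above a set limit at one or more doses, reproduced on every date tested; inconclusive = results disagree between test dates, or hit never tested in dose response; inactive = the rest.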

By UniProt entry, the sequences of proteins in these tests, tags left out. Where a name states a change or a piece, a line headed by the entry shows the natural chain unless it says otherwise.
UniProt P69720: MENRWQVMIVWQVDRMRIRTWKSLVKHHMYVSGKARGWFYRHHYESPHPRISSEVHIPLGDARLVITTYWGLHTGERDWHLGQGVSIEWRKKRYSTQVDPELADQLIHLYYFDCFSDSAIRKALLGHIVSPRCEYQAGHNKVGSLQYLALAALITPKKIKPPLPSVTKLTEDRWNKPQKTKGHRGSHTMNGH
UniProt P69721: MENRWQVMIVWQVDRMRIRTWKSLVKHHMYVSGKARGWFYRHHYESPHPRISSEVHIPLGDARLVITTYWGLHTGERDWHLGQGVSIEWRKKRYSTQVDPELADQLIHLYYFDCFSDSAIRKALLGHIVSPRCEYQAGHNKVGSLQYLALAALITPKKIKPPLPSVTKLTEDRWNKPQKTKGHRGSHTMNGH
UniProt P69722: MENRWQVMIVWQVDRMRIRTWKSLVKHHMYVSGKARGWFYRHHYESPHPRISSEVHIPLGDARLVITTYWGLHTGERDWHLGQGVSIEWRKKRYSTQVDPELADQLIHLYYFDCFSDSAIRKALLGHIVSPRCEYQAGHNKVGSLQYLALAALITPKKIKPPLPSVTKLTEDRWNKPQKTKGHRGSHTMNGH
UniProt P69723: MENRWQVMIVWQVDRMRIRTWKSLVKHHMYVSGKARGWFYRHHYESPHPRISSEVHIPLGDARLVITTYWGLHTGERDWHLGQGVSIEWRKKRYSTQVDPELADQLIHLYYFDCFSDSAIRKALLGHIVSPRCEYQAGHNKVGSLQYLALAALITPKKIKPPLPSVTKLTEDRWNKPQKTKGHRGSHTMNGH
UniProt Q9HC16: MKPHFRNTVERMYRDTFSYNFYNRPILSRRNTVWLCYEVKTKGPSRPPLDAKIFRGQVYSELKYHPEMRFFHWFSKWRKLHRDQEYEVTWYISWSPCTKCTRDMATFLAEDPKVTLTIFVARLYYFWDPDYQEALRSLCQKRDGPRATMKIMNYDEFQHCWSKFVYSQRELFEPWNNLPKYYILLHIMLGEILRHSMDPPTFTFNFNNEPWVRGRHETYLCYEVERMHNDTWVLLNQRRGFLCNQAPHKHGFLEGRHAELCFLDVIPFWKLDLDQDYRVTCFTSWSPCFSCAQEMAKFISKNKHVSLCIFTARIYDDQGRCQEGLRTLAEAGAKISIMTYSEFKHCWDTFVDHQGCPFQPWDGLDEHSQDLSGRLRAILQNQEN

biological target: Virion infectivity factor (Human immunodeficiency virus type 1 group M subtype B (isolate BH10)) + Virion infectivity factor (Human immunodeficiency virus type 1 group M subtype B (isolate BRU/LAI)) + Virion infectivity factor (Human immunodeficiency virus type 1 group M subtype B (isolate PCV12)) + Virion infectivity factor (Human immunodeficiency virus type 1 group M subtype B (isolate HXB2)) + DNA dC->dU-editing enzyme APOBEC-3G (Homo sapiens) (UniProt P69720+P69721+P69722+P69723+Q9HC16); test: inhibitors of Vif binding to APOBEC3G peptide, primary screen, biochemical, TR-FRET, GST-Vif 1-94, biotin-A3G peptide, dose response retest (AID 1117319); conditions: hits give high values;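 also: Vif residues 1-94 fused to GST binding biotinylated APOBEC3G peptide 110-148; 0% = full assay without inhibitor and 100% = GST in place of GST-Vif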

SMILES	inhibition
COc1ccc(S(=O)(=O)NC2(C(F)(F)F)N=C(c3ccccc3)NC2=O)cc1 (stereo unspecified)	inconclusive: 33.3%
CN(C)CCCOC(=O)c1cc2ccccc2o1	inconclusive: 52.5%
O=C(CSCCO)Nc1ccc([N+](=O)[O-])cc1	inconclusive: 41.3%
CC(C(=O)NC1CCCC1)N(C(=O)c1snc(C(N)=O)c1N)c1ccc2c(c1)OCCO2 (stereo unspecified)	inconclusive: 35.5%
Cc1cccc(N2CC(C(=O)Nc3ccccc3N3CCOCC3)CC2=O)c1C (stereo unspecified)	inactive: -2.77%
Cc1ccccc1CN1CCN(S(=O)(=O)c2ccc(F)cc2)CC1	inconclusive: 36.2%
O=C(NCc1ccccn1)c1cn(-c2ccccc2)nc1-c1ccc(Cl)cc1	inconclusive: 34.6%
O=C(Nc1ccccc1Oc1ccccc1)c1cccc([N+](=O)[O-])c1	inconclusive: 34.9%
CCn1c(COc2cccc(C)c2)nnc1SCC(=O)CC(=O)Nc1ccccc1OC	inconclusive: 45%
CCOC(=O)N1CCN(S(=O)(=O)c2cc(C)c(C)cc2C)CC1	inconclusive: 39.8%
CCN1CCN(c2cc(N3CCc4ccccc4C3)c(F)cc2[N+](=O)[O-])CC1	inconclusive: 33.6%
O=C(CCC(=O)c1cccs1)NCc1ccccc1	inconclusive: 36.5%
O=C(CSc1nc(-c2ccco2)cc(C(F)(F)F)n1)NC1CCCCCCC1	inconclusive: 49.7%
CC(/C=C1\SC(=S)N(CC(=O)N2CCN(c3ccccc3)CC2)C1=O)=C\c1ccccc1	inactive: 25.6%
CC1C(c2ccccc2)N(C)C(c2ccccc2)CC1(O)c1ccc(F)cc1 (stereo unspecified)	inconclusive: 46.4%
CC(=O)Oc1cc2c(C(=O)NCCN3CCOCC3)c(C)oc2c2ccccc12	inconclusive: 54.6%
Cc1ccc(Nc2nc(-c3sc(NC(=O)c4ccco4)nc3C)cs2)cc1	inconclusive: 38.2%
Cc1ccccc1C(=O)O/N=C(\N)c1ccncc1	inconclusive: 34.6%
Cc1ccc(C(=O)C(C)OC(=O)C2=COCCO2)cc1C (stereo unspecified)	inconclusive: 38.9%
CCOc1cc(/C=C2\CCCC(C(=O)C(F)(F)F)=C2O)ccc1O	inconclusive: 54.5%
COc1ccc(N(C(=O)c2cccnc2)S(=O)(=O)c2ccc3c4c(cccc24)C(=O)N3C)cc1	inconclusive: 47.6%
CC(C)N(Cc1nc(-c2ccccc2)no1)C(=O)CCCN1C(=O)c2ccccc2C1=O	inconclusive: 45.6%

SMILES	inhibition
COc1ccc(OC)c(/C=N/c2oc(-c3ccco3)c(-c3ccco3)c2C#N)c1	inconclusive: 58.9%
O=C(/C=C/c1ccc(O)cc1)c1ccc(O)cc1O	inactive: 9.02%
C/C(=N\Nc1ccc(C(=O)O)cc1)c1ccc2c(c1)Nc1ccccc1S2	inconclusive: 38%
CC(/C=N/NC(=O)c1nnn(-c2nonc2N)c1CN(C)C)=C\c1ccco1	inconclusive: 46.3%
COc1cc(NS(=O)(=O)c2cc(C)ccc2OC)c(OC)cc1Cl	inconclusive: 43.3%
COc1ccc(N=C2NC(=O)/C(=C/c3ccco3)S2)cc1	inconclusive: 34.3%
CCc1ccc(-c2nc(CN3CCC(C(=O)N4CCN(c5ccccn5)CC4)CC3)c(C)o2)cc1	inactive: -7.35%
CCOc1ccc2c(c1)S/C(=C\c1cccs1)C(=O)N2	inconclusive: 37%
CCCOc1ccc(N2C(=O)C3ON(c4ccccc4)C(CCC)C3C2=O)cc1 (stereo unspecified)	inconclusive: 40.8%
COc1ccc(C2CC(c3c(-c4ccccc4)c4cc(Cl)ccc4[nH]c3=O)=NN2S(C)(=O)=O)cc1OC (stereo unspecified)	inconclusive: 33.8%
CC1(C)CC(=O)C2=C(C1)N(c1ccccc1C#N)C(N)=C(C#N)C2c1cccs1 (stereo unspecified)	inconclusive: 33.4%
Cc1ccc(Cn2ccc(NC(=O)c3cc4nc5c(c(C(F)(F)F)n4n3)CCc3ccccc3-5)n2)cc1	inconclusive: 61%
CNC(=O)c1ccccc1NC(=O)c1cccc(S(=O)(=O)N2CCC(C)CC2)c1	inconclusive: 36.9%
COc1cccc(/C=N/NC(=O)c2cc(-c3cccn3C)n[nH]2)c1O	inconclusive: 46.7%
CC(=O)C1C(c2ccc(F)c(F)c2)NC(=O)NC1(O)C(F)(F)F (stereo unspecified)	inconclusive: 40.9%
Cc1nc(N2CCN(Cc3ccccc3)CC2)nc2c1C(=O)CC(c1ccco1)C2 (stereo unspecified)	inconclusive: 36.9%
O=C(Nc1cccc(S(=O)(=O)NC2=NCCCCC2)c1)c1cc(-c2ccco2)nc2ccccc12	inconclusive: 52.5%
COc1ccccc1CNC(=O)C(NC(=O)c1ccccc1)C(C)C (stereo unspecified)	inconclusive: 44.9%
COc1ccc(C2(CNC(=O)/C=C\c3ccco3)CCCC2)cc1OC	inconclusive: 34.2%
Cn1c(=O)[nH]c(=O)c2c1nc(N1CCOCC1)n2CCSc1nc2ccccc2[nH]1	inactive: 2.63%
C=CCn1c(SCC(=O)Nc2nnc(C)s2)nnc1-c1cccnc1	inconclusive: 38.3%
COc1ccc(-n2c(O)c(/C=N/NS(=O)(=O)c3ccc(C)c([N+](=O)[O-])c3)c3ccccc3c2=O)cc1OC	inconclusive: 44.9%

4 structures out of the list, sorted by count of non-hydrogen atoms, falling:
SMILES	inhibition
CNC(=O)c1ccccc1NC(=O)c1cccc(S(=O)(=O)N2CCC(C)CC2)c1	inconclusive: 36.9%
C/C(=N\Nc1ccc(C(=O)O)cc1)c1ccc2c(c1)Nc1ccccc1S2	inconclusive: 38%
COc1ccccc1CNC(=O)C(NC(=O)c1ccccc1)C(C)C (stereo unspecified)	inconclusive: 44.9%
COc1cc(NS(=O)(=O)c2cc(C)ccc2OC)c(OC)cc1Cl	inconclusive: 43.3%

2 records drawn at random from the list so far, as already listed:
SMILES	inhibition
O=C(CSc1nc(-c2ccco2)cc(C(F)(F)F)n1)NC1CCCCCCC1	inconclusive: 49.7%
COc1cccc(/C=N/NC(=O)c2cc(-c3cccn3C)n[nH]2)c1O	inconclusive: 46.7%

Following part.

SMILES	inhibition
CNC(=O)C1C(=S)NC(N)=C(C#N)C1c1ccccc1 (stereo unspecified)	inconclusive: 53.9%
O=C(NC(=S)N1CCCCC1)c1cccnc1	inconclusive: 39.5%
Cc1cccc(C(=O)N2CCCCCC2)c1	inconclusive: 48.9%
COc1cccc(C(=O)NC(c2ccccc2)C2CCCC2)c1 (stereo unspecified)	inconclusive: 53.6%
O=C(O)c1cc2cc(S(=O)(=O)O)ccc2cc1O	inactive: 26.7%
C=CCNc1nc(-c2cccc(OC)c2O)nc2ccccc12	inconclusive: 54.1%
Cc1onc(-c2ccccc2Cl)c1C(=O)Nc1ccc(N2CCOCC2)cc1	inconclusive: 35.9%
CC(O)Cn1cnc2c1c(=O)n(C)c(=O)n2C (stereo unspecified)	inconclusive: 38%
Cn1c(=O)c(=O)n(C)c2cc(S(=O)(=O)N3CCCC3C(=O)NCc3cccnc3)ccc21 (stereo unspecified)	inconclusive: 60.5%
Cc1cccc(N2CCN(C(=O)CCNS(=O)(=O)c3ccc4c(c3)CCC(=O)N4)CC2)c1C	inactive: -0.88%
O=C(N/N=C/c1ccc(F)cc1)c1cc(-c2ccco2)nc2ccccc12	inconclusive: 46.1%
O=C(NC(=S)Nc1nc2ccc(F)cc2s1)c1ccco1	inactive: 9.98%
C=CCn1c(SCC(=O)c2ccc(O)c(O)c2)nnc1-c1cccnc1	inconclusive: 46.2%
O=C(CCCSc1ccccc1)Nc1nc(-c2ccco2)c(-c2ccco2)s1	inconclusive: 50.2%
CC1=C(C(=O)Nc2ccccc2)C(c2ccc(N(C)C)cc2)NC(=O)N1 (stereo unspecified)	inactive: 8.56%
O=C(O)c1ccc2cccnc2c1O	inconclusive: 42.7%
Cc1cc(C)c(S(=O)(=O)/N=C2/C=C(SCC(=O)O)C(=O)c3ccccc32)cc1C	inconclusive: 52.4%
O=C(COC(=O)c1ccc2c(c1)OCO2)NCc1ccc2c(c1)OCO2	inconclusive: 16.9%
O=C1CSc2ccc(C(=O)O)cc2N1	inactive: 10.3%
CC1CCCCC1NC(=O)CN1CCC(O)(c2ccc(F)cc2)CC1 (stereo unspecified)	inconclusive: 50.4%
COc1ccc(C2N=C(N)N=C(N)N2c2ccccc2)cc1OC (stereo unspecified)	inconclusive: 33.7%
COC(=O)N(C)CCCC1(C)C(=O)N(C)c2ccc(O)cc21 (stereo unspecified)	inconclusive: 56.6%

SMILES	inhibition
Fc1ccc(NC(=S)Nc2cccnc2)c(F)c1F	inconclusive: 50.8%
O=c1c2cn[nH]c2[nH]c(=S)n1-c1cccc(Cl)c1	inconclusive: 37.3%
COc1ccc(C(C[N+](=O)[O-])c2c(-c3ccccc3)cc3ccccn23)cc1OC (stereo unspecified)	inconclusive: 37.6%
C=CCn1c(SCC(=O)N2CCOCC2)nc2scc(-c3ccco3)c2c1=O	inconclusive: 34.6%
O=C(CN1C(=O)NC2(CCCCCC2)C1=O)N1CCN(S(=O)(=O)c2ccccc2)CC1	inconclusive: 35.4%
Cc1ccc(C(=O)c2coc3cc([N+](=O)[O-])c(O)c([N+](=O)[O-])c23)cc1	inconclusive: 51.6%
Cc1[nH]c2ccccc2c1C(c1ccncc1)N1CCCCC1 (stereo unspecified)	inconclusive: 40.8%
Cc1ccc(C(=O)c2c(C)oc3c2C(=O)C(=O)c2ccccc2-3)cc1	inconclusive: 44.6%
COc1ccc(OCc2nnc3n2N=C(c2ccc(Br)cc2)CS3)cc1	inconclusive: 60.4%
COc1ccccc1-c1ccc(=O)n(CC(=O)NC(C)(C)C)n1	inconclusive: 39.4%
Cn1cc(/C=C2/SC(=O)N(c3ccccc3)C2=O)c2ccccc21	inconclusive: 37.6%
Nc1ncnc2nc(Sc3ccc(Cl)cc3)[nH]c12	inconclusive: 55.3%
Cc1cc(C)c2c(N)c(C(=O)NCC3CCCCC3)sc2n1	inconclusive: 43.7%
Cn1nc(C(F)(F)F)c(-c2ccc(F)cc2)c1NC(=O)CSCC(=O)O	inconclusive: 45.2%
Cc1ccc(S(=O)(=O)N(CC(=O)NCCSCc2ccco2)c2ccc(F)cc2)cc1	inconclusive: 34.5%
CC(C)N1CCN(Cc2cc(F)ccc2-n2cccn2)CC1CCO (stereo unspecified)	inconclusive: 50.2%
CCOc1ccc(N(CC(=O)NC(C)CC)S(=O)(=O)c2c(C)noc2C)cc1 (stereo unspecified)	inactive: -0.89%
CC(=O)NS(=O)(=O)c1ccc(N)cc1	inconclusive: 38.1%
CC1(C)CC(=O)C2=C(C1)Nc1ccccc1NC2c1ccccc1F (stereo unspecified)	inconclusive: 39.5%
CC(C)[C@H](Nc1ccc(S(=O)(=O)N2CCOCC2)cc1[N+](=O)[O-])C(=O)OCC(=O)N(C(C)C)C(C)C	inconclusive: 40.8%
